Measured data: PubChem BioAssay AID1224830 (NIAID, 2016)

Assay: 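Host factors that control LPS-induced TNF expression in human macrophages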 (primary screen)
Cell system: human THP-1 monocytic leukaemia cells, TNF dual-luciferase reporter clone, PMA-differentiated to macrophage-like cells
Reagents: siRNA pool against human genes, 50 nM
Time to read-out: LPS for 4 h, given about 3 days after siRNA transfection
Conditions: bacterial LPS (TLR4 ligand), 10 ng/ml
Measurement: 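Ratio of firefly to renilla light, scaled to the plate median and expressed as a robust z-score per replicate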
Reading the numbers: TNF reporter robust z-score: higher = stronger TNF reporter response to LPS
Hit rule: 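Each well counts as active if its z-score is over 2.8 or under -1.5; controls are left without a call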
Here is a random part of about 18,000 deposited reagents. Over the whole deposit, about 2,900 (16%) are marked active. 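Calls are made per well; low scores hint the gene aids the LPS response, high scores that it dampens it.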 Repeated entries: four replicate wells of each siRNA pool.

After knock-down of ADCY8 [SID315447191], the record shows TNF reporter robust z-score 0.74; inactive.
ADCY8 [SID315447191] showed TNF reporter robust z-score 2.04; inactive.
After knock-down of ADCY8 [SID315447191] the results were TNF reporter robust z-score 0; inactive.
Silencing of ADCY8 [SID315447191] gave: TNF reporter robust z-score 0.97; inactive.
After knock-down of NECAB3 [SID315458783] the results were TNF reporter robust z-score 3.13; active.
Depletion of NECAB3 [SID315458783] came out at: TNF reporter robust z-score 4.09; active.
For NECAB3 [SID315458783], the values are TNF reporter robust z-score 0.2; inactive.
Against NECAB3 [SID315458783], the values are TNF reporter robust z-score 1.78; inactive.
Against DHRS13 [SID315462312], the entry reads TNF reporter robust z-score -0.92; inactive.
Against DHRS13 [SID315462312], the values are TNF reporter robust z-score -1.39; inactive.
DHRS13 [SID315462312] gave TNF reporter robust z-score -1.12; inactive.
After knock-down of DHRS13 [SID315462312] the results were TNF reporter robust z-score -1.02; inactive.
After knock-down of SNRPB [SID315451556], the record shows TNF reporter robust z-score -0.3; inactive.
With knock-down of SNRPB [SID315451556], the record shows TNF reporter robust z-score -0.56; inactive.
SNRPB [SID315451556] gave TNF reporter robust z-score -0.82; inactive.
For SNRPB [SID315451556], the values are TNF reporter robust z-score -1.93; active.
NDUFV1-DT [SID315463635] showed TNF reporter robust z-score 0.62; inactive.
NDUFV1-DT [SID315463635] showed TNF reporter robust z-score 1.43; inactive.
NDUFV1-DT [SID315463635] gave TNF reporter robust z-score 1.14; inactive.
Against NDUFV1-DT [SID315463635] the deposit lists TNF reporter robust z-score 1.18; inactive.
JMJD1C [SID315463263] gave TNF reporter robust z-score 2.87; active.
After knock-down of JMJD1C [SID315463263], the screen gave TNF reporter robust z-score 2.98; active.
Against JMJD1C [SID315463263] the deposit lists TNF reporter robust z-score 0.39; inactive.
With knock-down of JMJD1C [SID315463263], the screen gave TNF reporter robust z-score 1.99; inactive.
After knock-down of SAMD3 [SID315462581] the results were TNF reporter robust z-score 6.58; active.
After knock-down of SAMD3 [SID315462581], the record shows TNF reporter robust z-score 1.32; inactive.
SAMD3 [SID315462581] scored TNF reporter robust z-score 0.46; inactive.
SAMD3 [SID315462581] scored TNF reporter robust z-score 0.43; inactive.

Called active, among the entries above:
NECAB3 [SID315458783] → TNF reporter robust z-score: 3.13; activity call: active
NECAB3 [SID315458783] → TNF reporter robust z-score: 4.09; activity call: active
SNRPB [SID315451556] → TNF reporter robust z-score: -1.93; activity call: active
JMJD1C [SID315463263] → TNF reporter robust z-score: 2.87; activity call: active
JMJD1C [SID315463263] → TNF reporter robust z-score: 2.98; activity call: active
SAMD3 [SID315462581] → TNF reporter robust z-score: 6.58; activity call: active

Further results:
With knock-down of ZSWIM8 [SID315454956], the record shows TNF reporter robust z-score -1.2; inactive.
After knock-down of ZSWIM8 [SID315454956], the screen gave TNF reporter robust z-score 1.28; inactive.
ZSWIM8 [SID315454956] showed TNF reporter robust z-score 0.96; inactive.
For ZSWIM8 [SID315454956], the entry reads TNF reporter robust z-score -0.17; inactive.
For PTPN12 [SID315450959] the deposit lists TNF reporter robust z-score -0.74; inactive.
PTPN12 [SID315450959] scored TNF reporter robust z-score -0.62; inactive.
For PTPN12 [SID315450959], the values are TNF reporter robust z-score -0.03; inactive.
PTPN12 [SID315450959] gave TNF reporter robust z-score -0.51; inactive.
For LINC01973 [SID315464748], the values are TNF reporter robust z-score -0.48; inactive.
Knock-down of LINC01973 [SID315464748] came out at: TNF reporter robust z-score 0.14; inactive.
Knock-down of LINC01973 [SID315464748] gave: TNF reporter robust z-score 3.52; active.
Silencing of LINC01973 [SID315464748] resulted in: TNF reporter robust z-score 4.74; active.
For BOC [SID315460935], the values are TNF reporter robust z-score 1.7; inactive.
BOC [SID315460935] scored TNF reporter robust z-score 2.26; inactive.
Knock-down of BOC [SID315460935] came out at: TNF reporter robust z-score 1.37; inactive.
Knock-down of BOC [SID315460935] gave: TNF reporter robust z-score 2.73; inactive.
Knock-down of POFUT3 [SID315460491] came out at: TNF reporter robust z-score -0.48; inactive.
For POFUT3 [SID315460491], the entry reads TNF reporter robust z-score -0.73; inactive.
For POFUT3 [SID315460491] the deposit lists TNF reporter robust z-score -0.34; inactive.
